These are yes or no findings as the source states them, for the method shown. Binding seen in cells or lysates may run through a third protein. Some binding calls cover weakened binding; strength is not graded here. Tags and fused reporters may be left off the sequences shown. One block for each binder: values may come before it.
Target: T1, GST-HsSec31a1041-1220 (human) (UniProt O94979)
T1 sequence: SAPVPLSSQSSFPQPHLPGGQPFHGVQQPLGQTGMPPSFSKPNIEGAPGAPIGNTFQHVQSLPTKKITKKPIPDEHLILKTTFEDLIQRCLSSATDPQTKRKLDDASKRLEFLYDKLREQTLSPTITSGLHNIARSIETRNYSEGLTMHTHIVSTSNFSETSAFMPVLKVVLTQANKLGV
Experiment: pull-down

binding: binds
B1: GFP-p125A (protein, UniProt Q9Y6Y8 1-1000)
chain: MAERKPNGGSGGASTSSSGTNLLFSSSATEFSFNVPFIPVTQASASPASLLLPGEDSTDVGEEDSFLGQTSIHTSAPQTFSYFSQVSSSSDPFGNIGQSPLTTAATSVGQSGFPKPLTALPFTTGSQDVSNAFSPSISKAQPGAPPSSLMGINSYLPSQPSSLPPSYFGNQPQGIPQPGYNPYRHTPGSSRANPYIAPPQLQQCQTPGPPAHPPPSGPPVQMYQMPPGSLPPVPSSVQSPAQQQVPARPGAPSVQVPSPFLLQNQYEPVQPHWFYCKEVEYKQLWMPFSVFDSLNLEEIYNSVQPDPESVVLGTDGGRYDVYLYDRIRKAAYWEEEPAEVRRCTWFYKGDTDSRFIPYTEEFSEKLEAEYKKAVTTNQWHRRLEFPSGETIVMHNPKVIVQFQPSSVPDEWGTTQDGQTRPRVVKRGIDDNLDEIPDGEMPQVDHLVFVVHGIGPVCDLRFRSIIECVDDFRVVSLKLLRTHFKKSLDDGKVSRVEFLPVHWHSSLGGDATGVDRNIKKITLPSIGRFRHFTNETLLDILFYNSPTYCQTIVEKVGMEINHLHALFMSRNPDFKGGVSVAGHSLGSLILFDILSNQKDLNLSKCPGPLAVANGVVKQLHFQEKQMPEEPKLTLDESYDLVVENKEVLTLQETLEALSLSEYFSTFEKEKIDMESLLMCTVDDLKEMGIPLGPRKKIANFVEHKAAKLKKAASEKKAVAATSTKGQEQSAQKTKDMASLPSESNEPKRKLPVGACVSSVCVNYESFEVGAGQVSVAYNSLDFEPEIFFALGSPIAMFLTIRGVDRIDENYSLPTCKGFFNIYHPLDPVAYRLEPMIVPDLDLKAVLIPHHKGRKRLHLELKESLSRMGSDLKQGFISSLKSAWQTLNEFARAHTSSTQLQEELEKVANQIKEEEEKQVVEAEKVVESPDFSKDEDYLGKVGMLNGGRRIDYVLQEKPIESFNEYLFALQSHLCYWESEDTALLLLKEIYRTMNISPEQPQH

binding: binds
B2: endogenous p125A (protein, UniProt Q9Y6Y8 1-1000)
chain: B1 chain

Reference: paper doi:10.1101/2025.05.07.652703
